From US6420131B1, “Use of fluorescein aryl ethers in high throughput cytochrome P450 inhibition assays” (Gentest Corporation, priority 1999, dated 2002)

Protein sequences, listed by entry. Tags and fused reporters are not part of them.
UniProt P08684, whole entry: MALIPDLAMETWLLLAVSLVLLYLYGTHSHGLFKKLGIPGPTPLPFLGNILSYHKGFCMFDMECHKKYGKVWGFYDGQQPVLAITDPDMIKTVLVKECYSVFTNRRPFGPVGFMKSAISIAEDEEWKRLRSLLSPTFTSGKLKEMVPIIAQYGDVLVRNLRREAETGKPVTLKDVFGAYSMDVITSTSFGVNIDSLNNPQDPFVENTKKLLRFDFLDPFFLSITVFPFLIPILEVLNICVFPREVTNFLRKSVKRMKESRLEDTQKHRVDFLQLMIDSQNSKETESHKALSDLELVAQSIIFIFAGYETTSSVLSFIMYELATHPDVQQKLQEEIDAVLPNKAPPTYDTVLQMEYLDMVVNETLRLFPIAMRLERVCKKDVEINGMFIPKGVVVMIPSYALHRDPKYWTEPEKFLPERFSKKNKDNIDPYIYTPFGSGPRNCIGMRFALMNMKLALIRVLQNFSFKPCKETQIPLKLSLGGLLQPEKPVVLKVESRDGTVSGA

Molecular target: human CYP3A4 (Homo sapiens, UniProt P08684)

COC(=O)C1=C(C)NC(C)=C(C(=O)OC)C1c1ccccc1[N+](=O)[O-] [Nifedipine]
Range: 17
